First the molecules themselves.
B1: tRNA (parent)
chain: GUUCCGUUGGCGUAAUGGUAACGCGUCUCCCUCCUAAGGAGAAGACUGCGGGUUCGAGUCCCGUACGGAACG

Variants at the background level are over-represented here.

The variants in this data set derive from B1. Briefly: yeast fitness relative to wild type (ratio to wild type); higher = fitter; tRNA-Arg(CCU), competitive growth, 37 C, YPD. The gist of the method:
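Amplicons of the tRNA-Arg(CCU) gene were sequenced, 100-nucleotide paired-end, from the start population and from each end population of a pooled yeast competition. The competition, in six parallel replicates, lasted 24 hours in YPD at 37°C. Fitness relative to wild type was calculated from changes in genotype frequencies. Genotypes had to have ≥ 100 starting reads, and estimates < 0.5 were set to 0.5.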
Take U32C A40U C55A G56C: the yeast fitness was at most 0.5. As for C11A A42C G63C, the yeast fitness is at most 0.5.

Turning to G38C A45C G52C C61U, the yeast fitness was at most 0.5.

C5A G18C C46U: the yeast fitness was determined as 0.557. As to A20C G52A A65G, the yeast fitness is at most 0.5. On to C5U A21U A57U C60A, for which the yeast fitness is at most 0.5. On to C4A G25C U26C G50A U54G, for which the yeast fitness is at most 0.5. Regarding C11A A42G C61U, the yeast fitness is at most 0.5. In the case of C4A G17A C27U C31U U53C A70U, the yeast fitness is at most 0.5. As to C27G U47G G48A, the yeast fitness was at most 0.5. With A20U C29U C49G C55A C66U, the yeast fitness is at most 0.5. With C4A C33G U47A, the yeast fitness turned out to be 0.625. On to C4U C11G C34U C55U, for which the yeast fitness is at most 0.5. As to U35G C46A A69C, the yeast fitness is at most 0.5. Take C5G G9C U53A G58A G68U: the yeast fitness was at most 0.5. With C11U A20C C60A, the yeast fitness was at most 0.5.

As to C11U C31U G56A A57C, the yeast fitness was at most 0.5. With C4U C5A U59C C60G, the yeast fitness is at most 0.5.

In the case of G9C C27U U47C C55U C62G A69U, the yeast fitness was at most 0.5. For G48A U54G, the yeast fitness was 0.686. On to G6C U13A A20U A21G, for which the yeast fitness was at most 0.5. For C11A C55G, the yeast fitness stood at 0.535. For the variant A21U C33U A42G G44C, the yeast fitness was at most 0.5. In the case of U3A G12A U19A U64C, the yeast fitness is at most 0.5. With G10A C34G A69U, the yeast fitness was at most 0.5. U16C C24U A57U C61U: the yeast fitness was at most 0.5.

As for G6C A21G U32C U59G C66U A70C, the yeast fitness was at most 0.5. In the case of G10A C29U C30G C34A C49G, the yeast fitness was at most 0.5.

As to G9A C11G C24G U32A C46G A69U, the yeast fitness is at most 0.5. Regarding U32G C34A G38A A70G, the yeast fitness is at most 0.5. Regarding A21G C27A C33G, the yeast fitness is at most 0.5. As to A15U A20G C27U A69C, the yeast fitness is at most 0.5. U54A G68C: the yeast fitness was at most 0.5. To U13C C46A U54C belongs at most 0.5; to C5U C22A A57U, at most 0.5. To A36U G48C C49G belongs at most 0.5; to C11G C29G U32G G38A U53C, at most 0.5; to A37C A40C A57C, at most 0.5.

In the case of U7A U8A G10C C27G C34G A36G C55U G63A, the yeast fitness is at most 0.5. To C5A C24G U26A C29G U32A A65U belongs at most 0.5; to U8A U19G C24G U32A C49U, at most 0.5; to G6A C24A G38A G39C, at most 0.5.

In the case of G10A A15C C24U A36C A43U G67C, the yeast fitness is at most 0.5. To U8A U16C C22U C24U C29U C60U belongs at most 0.5; to G10A C55G A65C, at most 0.5. As to C29A C30U A37C C66U, the yeast fitness is at most 0.5. Turning to A14C G18A G48A C60G, the yeast fitness is 0.558. For the variant U26A G52A, the yeast fitness is 0.666. With G18C U28G A45C C66A, the yeast fitness is at most 0.5. For C5G A42U A70C, the yeast fitness came to 0.681. With C11G A36C C61U, the yeast fitness was at most 0.5. To C22A C27U G56A A57C belongs at most 0.5. As to C4U A20U C46G A57U A69C, the yeast fitness was at most 0.5. Turning to U7G C11G U19C C34U G41A, the yeast fitness was at most 0.5. Consider A42U C49U C55U A69C, for which the yeast fitness is at most 0.5. Take A40G G56A: the yeast fitness stood at 0.998.

C11A G23C C33U A43U A45C: the yeast fitness is at most 0.5. C4U C33U G44A C66U: the yeast fitness was at most 0.5. For the variant C5U C22U A37C, the yeast fitness was at most 0.5.

C24A C34G A40U C61G: the yeast fitness is at most 0.5. To C5U A14C C34G A37U A40U G56C belongs at most 0.5; to C34U A45U, 0.686. To C5A C22G C27G A36U A40C A65U belongs at most 0.5. To C24A G52C C55A belongs at most 0.5; to A20G C24U, 0.9.

In the case of C4A A15U U53C A57C A70C, the yeast fitness is at most 0.5. Turning to G12C C29A A45U, the yeast fitness was at most 0.5.

For the variant A21C C46U, the yeast fitness came out at 0.909. To C34U U35G belongs at most 0.5. Regarding U19G A37G A65U A69U, the yeast fitness was at most 0.5. In the case of U2C A40C C66A, the yeast fitness is at most 0.5.

As to C4A G18A C24U C30G C34G, the yeast fitness was at most 0.5. Turning to G10C C24A G51A A65G A70C, the yeast fitness turned out to be 0.55. Take A14G G38A C60U G67C: the yeast fitness is at most 0.5. To C30U A57C C61U belongs at most 0.5.

In the case of C30G C60A C66U, the yeast fitness amounted to 0.551. Consider A14G G25A C30A G50A C55U, for which the yeast fitness is at most 0.5. Consider A14G G38C G50C, for which the yeast fitness was at most 0.5.

Consider G9C A14G G67C, for which the yeast fitness was at most 0.5. To G10A G12A U16A G18A A45U belongs at most 0.5; to C4G G17A C34A A43G U64C, at most 0.5.

A15G A57U G68U: the yeast fitness is at most 0.5. Consider G12A A36U, for which the yeast fitness is 0.612.

For the variant C29U G44C C49U A57U G63A, the yeast fitness is at most 0.5. Turning to C11U C34U G48A G56A, the yeast fitness is at most 0.5.

In the case of U13C A20C, the yeast fitness came to 0.903. Consider A21G A40G A42U A43G A65G, for which the yeast fitness was at most 0.5. Take A14G C29U A42C C66G: the yeast fitness was at most 0.5. Turning to U19C A20U C27G G52C, the yeast fitness is at most 0.5. With C4U A20U A40U C49A G56C A65G, the yeast fitness is at most 0.5.

With U7A U19C C27G, the yeast fitness was at most 0.5. On to C29A C60G G63A, for which the yeast fitness is at most 0.5. To C5G C30A C31A C49U C55G G67A belongs at most 0.5; to G18A U26G G48C, at most 0.5; to G18A G23C C30G A36U A65U A69C, at most 0.5.

In the case of G9A U28C A37U U47A C61U, the yeast fitness amounted to 0.871.

Take C5A U13A U35A U59C A70U: the yeast fitness stood at 0.58. For the variant C5A C33U C55G A65G, the yeast fitness was at most 0.5. C5A C46G: the yeast fitness is 0.719.

Take U2A U8A A69U: the yeast fitness is at most 0.5.

As for C22A C27A G52C, the yeast fitness is at most 0.5. As to U2G A42U C55U C62G A70C, the yeast fitness was at most 0.5. As to G6C A42G G63U, the yeast fitness is at most 0.5. Turning to U3A C4U U7A C24U C31A A40C G52A C61A, the yeast fitness is at most 0.5. G9C C27A G56C: the yeast fitness is at most 0.5. Turning to U8A C11U G25A C31A C33A A40U A69U, the yeast fitness is at most 0.5. On to C24U U35A A40G C49U, for which the yeast fitness is at most 0.5. As for C4U C11U A15G C34U U54C C55U, the yeast fitness turned out to be 0.501.

For A42G C62G A70C, the yeast fitness is at most 0.5. To A15C C29U G39C A42U G48C G50U G51C A65U belongs at most 0.5. Turning to G12A A14C C30A G52C, the yeast fitness is at most 0.5. Regarding U2G U54C C66U, the yeast fitness is at most 0.5. For G38U C46A, the yeast fitness turned out to be 0.783. As for C27G U54A, the yeast fitness was 0.544.

For A15G G39C A40G C66G A69C, the yeast fitness was at most 0.5.

With A42G A57U G67C, the yeast fitness was at most 0.5. In the case of C24A C29U G63C, the yeast fitness is at most 0.5.

For the variant A14U C31A U35G, the yeast fitness was at most 0.5. For the variant C33G A40U C46G C49G C55U, the yeast fitness is at most 0.5. As for C49A A57C A69U, the yeast fitness was 0.528.

As for G6A U8G G68C, the yeast fitness was at most 0.5.

Turning to C4G A20C U32A C34G A37U, the yeast fitness was at most 0.5. Regarding A21G G23A C55G C66G, the yeast fitness was at most 0.5. To C5U G39A G41A A45U C46U belongs at most 0.5. For the variant G10A A37U C61G C66G, the yeast fitness came to 0.623. Turning to A42C G51A, the yeast fitness is 0.849. To U7C C31G C34U belongs at most 0.5.

For C34G U54A U59C A65G A70G, the yeast fitness came to 0.84.

G6A A14G C24U A65C: the yeast fitness was at most 0.5.

C5A U35G G41A A43C G56A A70C: the yeast fitness was at most 0.5. For A15C C27U C62U, the yeast fitness is at most 0.5. For C24G A57U A70G, the yeast fitness is at most 0.5.

For the variant C34U A69U, the yeast fitness is 0.667. On to U19C A37G C62G, for which the yeast fitness was at most 0.5. On to A20U U54G A65U G67A, for which the yeast fitness is at most 0.5. Regarding C4A C27G A45U C55A, the yeast fitness was at most 0.5. For the variant G9A C22A U53A A57G G63A, the yeast fitness was at most 0.5. To U2C U3C A57C G67U belongs at most 0.5; to A15G G39C A69C, 0.624; to A15U C22G C31U G52A A57C U64A G68A, at most 0.5. Consider C5G G9A C27G C61U C66U, for which the yeast fitness was at most 0.5. For the variant A14G U28G A43G G44A, the yeast fitness was at most 0.5. To U16C C22G C30U C46A U54A A57G belongs at most 0.5. Turning to G9C C30G U54A, the yeast fitness was at most 0.5.

As for C11G A42C A69G, the yeast fitness is at most 0.5. With C5U A20C G23A A36G G52C, the yeast fitness is at most 0.5. Take U7C U16C G23C G68A: the yeast fitness was at most 0.5. To C27U U32A belongs 0.993. C11G A21G G38C G41C C60G: the yeast fitness was at most 0.5. As to U26C C30U G51A C55U, the yeast fitness is at most 0.5. To C5G G12A U28A A65G belongs 0.703; to G12A C27G C61U A65C G67A G68A, at most 0.5; to A40C G52C C66U G67A, at most 0.5. For A14C U32C U35A G44C C66U G67U A70G, the yeast fitness was at most 0.5. To A14U U19C G67C belongs at most 0.5. To C5U G48A C61G A69C belongs at most 0.5. C5U A20U U28G U32G C34G: the yeast fitness was at most 0.5. To C11U U13C C24A A43C G50C C60G belongs at most 0.5; to G9A C27G C31U A69C, at most 0.5. To U47C G56C U64C G68C belongs at most 0.5. To U19A U53A belongs 0.553. With A36C C61A G63C, the yeast fitness was at most 0.5.

For C22U A42U, the yeast fitness worked out at 0.749.

As for C5G U53A C62G, the yeast fitness is at most 0.5. To C5A C11G G41C G56A belongs at most 0.5. Turning to A15C C30A, the yeast fitness was determined as 0.666.

Turning to U3A G50C G56A, the yeast fitness is at most 0.5.

The record behind these values is the RNAGym collection of RNA variant scans (doi:10.1126/science.aae0568).
